Reference: PubChem BioAssay (NCATS)
Inconclusive results, whose numbers are uncertain, are shown with a selection of clear calls. For some assays here: Where the call is inconclusive, the potency comes from a doubtful curve fit. Active and inactive are the calls of the source. The call rests on the fitted dose curve; in most records, active means well fitted cell-killing curve with a large enough effect; inconclusive means small, poorly fitted or top-dose-only effect, or effect the other way; inactive means no such curve, though single readings can be large or run the other way.

What was measured:
[1] = Quantitative High-Throughput drug screen in 47 multiple myeloma cell lines against the NCATS MIPE library collection: KMS12BM_JCRB cell viability assay (AID 1918971); further: potency means the concentration at half of the fitted maximal effect; nearly all actives have a fitted effect of over 35% in size
How it was run: (§1)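 Viability readout: CellTiter-Glo luminescence following 5 min room-temperature incubation with reagent. Prior exposure: 48 h, 37C, humidified 5% CO2, 500 cells per well.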

[2] = Quantitative High-Throughput drug screen in 47 multiple myeloma cell lines against the NCATS MIPE library collection: KMS20_JCRB cell viability assay (AID 1918973); further: nearly all actives have a fitted effect of over 45% in size
How it was run: (§2)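 Myeloma cell lines, 500 cells per well, exposed to MIPE 4.0 library compounds for 48 h at 37C, 5% CO2. Viability from ATP by CellTiter-Glo luminescence; normalised to DMSO (100%) and media-only (0%) wells.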

[3] = Quantitative High-Throughput drug screen in 47 multiple myeloma cell lines against the NCATS MIPE library collection: KMS21BM_JCRB cell viability assay (AID 1918974); settings: ATP luminescence, 48 h; further: potency means the concentration at half of the fitted maximal effect
How it was run: as §2

[4] = Quantitative High-Throughput drug screen in 47 multiple myeloma cell lines against the NCATS MIPE library collection: KMS26_JCRB cell viability assay (AID 1918975); further: potency means the concentration at half of the fitted maximal effect; nearly all actives have a fitted effect of over 45% in size
How it was run: as §1

[5] = Quantitative High-Throughput drug screen in 47 multiple myeloma cell lines against the NCATS MIPE library collection: MMM1_PLB cell viability assay (AID 1918976); settings: MMM1 myeloma cells viability, CellTiter-Glo, 48 h; further: potency means the concentration at half of the fitted maximal effect; nearly all actives have a fitted effect of over 35% in size
How it was run: (§3)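 Myeloma cells (500/well) treated with MIPE 4.0 compounds for 48 h at 37 °C, 5% CO2. Viability read as ATP via CellTiter-Glo luminescence after 5 min at RT; DMSO-only wells = 100%, media-only = 0% viability.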

[6] = Quantitative High-Throughput drug screen in 47 multiple myeloma cell lines against the NCATS MIPE library collection: MM1S_ATCC cell viability assay (AID 1918980); further: potency means the concentration at half of the fitted maximal effect; nearly all actives have a fitted effect of over 45% in size
How it was run: as §3

[7] = Quantitative High-Throughput drug screen in 47 multiple myeloma cell lines against the NCATS MIPE library collection: LP1_DSMZ cell viability assay (AID 1918982); further: potency means the concentration at half of the fitted maximal effect; nearly all actives have a fitted effect of over 35% in size
How it was run: as §3

[8] = Quantitative High-Throughput drug screen in 47 multiple myeloma cell lines against the NCATS MIPE library collection: KMS28PE_JCRB cell viability assay (AID 1918983); settings: KMS28PE multiple myeloma viability, CellTiter-Glo ATP, 48 h; further: potency means the concentration at half of the fitted maximal effect; nearly all actives have a fitted effect of over 35% in size
How it was run: as §3

[9] = Quantitative High-Throughput drug screen in 47 multiple myeloma cell lines against the NCATS MIPE library collection: L363_DSMZ cell viability assay (AID 1918984); settings: L363 myeloma viability, CellTiter-Glo ATP luminescence, 48 h; further: potency means the concentration at half of the fitted maximal effect; nearly all actives have a fitted effect of over 40% in size
How it was run: as §3

[10] = Quantitative High-Throughput drug screen in 47 multiple myeloma cell lines against the NCATS MIPE library collection: KMS34_JCRB cell viability assay (AID 1918985); further: potency means the concentration at half of the fitted maximal effect; nearly all actives have a fitted effect of over 40% in size
How it was run: as §3

[11] = Quantitative High-Throughput drug screen in 47 multiple myeloma cell lines against the NCATS MIPE library collection: OCIMY7_PLB cell viability assay (AID 1918987); settings: OCI-MY7 myeloma viability, CellTiter-Glo ATP, 48 h; further: potency means the concentration at half of the fitted maximal effect; nearly all actives have a fitted effect of over 65% in size
How it was run: as §3

[12] = Quantitative High-Throughput drug screen in 47 multiple myeloma cell lines against the NCATS MIPE library collection: OCIMY5_PLB cell viability assay (AID 1918988); further: potency means the concentration at half of the fitted maximal effect; nearly all actives have a fitted effect of over 65% in size
How it was run: as §3

[13] = Quantitative High-Throughput drug screen in 47 multiple myeloma cell lines against the NCATS MIPE library collection: SKMM1_PLB cell viability assay (AID 1919863); settings: SKMM1 myeloma viability, CellTiter-Glo ATP, 48 h; viability: active compounds read low
How it was run: as §3

[14] = Quantitative High-Throughput drug screen in 47 multiple myeloma cell lines against the NCATS MIPE library collection: XG1_PLB cell viability assay (AID 1919866); settings: CellTiter-Glo ATP, 48 h; at 45.8 µM (top of the series); further: nearly all actives have a fitted effect of over 35% in size
How it was run: as §3

[15] = Quantitative High-Throughput drug screen in 47 multiple myeloma cell lines against the NCATS MIPE library collection: VP6_DJ cell viability assay (AID 1919867); settings: ATP luminescence, 48 h; further: potency means the concentration at half of the fitted maximal effect; nearly all actives have a fitted effect of over 40% in size
How it was run: as §3

[16] = Quantitative High-Throughput drug screen in 47 multiple myeloma cell lines against the NCATS MIPE library collection: UTMC2_PLB cell viability assay (AID 1919868); further: potency means the concentration at half of the fitted maximal effect; nearly all actives have a fitted effect of over 55% in size
How it was run: as §3

[17] = Quantitative High-Throughput drug screen in 47 multiple myeloma cell lines against the NCATS MIPE library collection: PCM6_Riken cell viability assay (AID 1919870); settings: CellTiter-Glo ATP, 48 h; further: potency means the concentration at half of the fitted maximal effect; nearly all actives have a fitted effect of over 30% in size
How it was run: as §3

[18] = Quantitative High-Throughput drug screen in 47 multiple myeloma cell lines against the NCATS MIPE library collection: OPM2_DSMZ cell viability assay (AID 1919872); further: potency means the concentration at half of the fitted maximal effect; nearly all actives have a fitted effect of over 30% in size
How it was run: as §2

[19] = Quantitative High-Throughput drug screen in 47 multiple myeloma cell lines against the NCATS MIPE library collection: KMS11_JCRBsus cell viability assay (AID 1919873); further: potency means the concentration at half of the fitted maximal effect; nearly all actives have a fitted effect of over 50% in size
How it was run: as §3

[20] = Quantitative High-Throughput drug screen in 47 multiple myeloma cell lines against the NCATS MIPE library collection: KMS28BM_JCRB cell viability assay (AID 1919874); settings: CellTiter-Glo ATP, 48 h
How it was run: as §3

Clc1ccccc1C(c1ccccc1)(c1ccccc1)n1cccn1
active: Potency [6] 0.469 µM | Potency [8] 11.8 µM
inconclusive: Potency [1] 13.2 µM [cytotoxic, partial curve, poor fit] | Potency [3] 33.2 µM [rising, partial curve] | Potency [4] 33.2 µM [cytotoxic, single point] | Potency [5] 23.5 µM [cytotoxic, partial curve, poor fit] | Potency [7] 23.5 µM [cytotoxic, single point] | Potency [9] 0.235 µM [cytotoxic, partial curve, poor fit] | Potency [10] 18.7 µM [cytotoxic, partial curve, poor fit] | Potency [11] 0.833 µM [cytotoxic, full curve, poor fit] | Potency [12] 9.35 µM [rising, partial curve, poor fit] | Potency [13] 26.4 µM [cytotoxic, partial curve, poor fit] | Potency [15] 0.0187 µM [rising, full curve, poor fit] | Potency [16] 33.2 µM [rising, single point] | Potency [17] 0.0026 µM [rising, full curve, poor fit] | Potency [18] 18.7 µM [cytotoxic, partial curve, poor fit] | Potency [19] 0.001 µM | Potency [20] 0.001 µM
inactive: Potency [2] | viability [14] 115%
